Assay [1] relates to frontal cortex and hippocampus. Briefly: Brain histopathology (H&E), AlCl3 Alzheimer's model. The format is in vivo, rat. The settings on record: 5 mg/kg, p.o. The text has this: (§1) Transl Psychiatry. 2019; 9(1):207.
The brain histopathology was done for all the experimental groups. The brain tissue was fixed in 10% buffered neutral formalin solution. The tissue was embedded in paraffin, sectioned at […] stained with hematoxylin and eosin (H&E). The sections were examined under light microscope to study the architecture of the brain tissue, and then photomicrographs were taken (Fischer A H, Jacobson K A, Rose J, Zeller R. Hematoxylin and eosin staining of tissue and cell sections. CSH Protoc. 2008:1;pdb.prot4986. doi: 10.1101/pdb.prot4986).

For assay [2], the system named is acetylcholinesterase (AChE). The settings on record: 5 mg/kg, p.o. + AlCl3 (100 mg/kg, i.p.); brain homogenate; Mean ± SEM, n = 6.
The next assay deals with BDNF. Put plainly: BDNF level in brain homogenate (ELISA), AlCl3 Alzheimer's model. The assay is classed as in vivo, rat. The settings on record: 5 mg/kg, p.o. + AlCl3 (100 mg/kg, i.p.), Mean ± SEM, n = 6.
Excerpt: as §1
Brain-derived neurotrophic factors (BDNFs) play an important role in maintaining synaptic plasticity in learning and memory. Depletion of BDNF has been linked with Aβ accumulation, tau phosphorylation, neuroinflammation and neuronal apoptosis. Considering AD as a synaptic disorder, BDNF has attracted increasing attention as a potential diagnostic biomarker and a therapeutical molecule for AD. In the current study, BDNF levels were determiner using ELISA kit (Krishgen Biosystems, India).
A general note: In an ELISA, binding on a coated surface is turned into a signal by an enzyme label.

The test system of another assay is Alzheimer's disease. Put plainly: Novel object recognition (NOR) test in rats with AlCl3-induced Alzheimer's disease. The format is in vivo, rat. The settings on record: 5 mg/kg, p.o. + AlCl3 (100 mg/kg, i.p.); NOR at 15th day; Mean ± SEM, n = 6. As for the experimental part: as §1
Novel object recognition (NOR)—Novel object recognition (NOR)—This test was performed as per reported protocol (Antunes M, Biala G. The novel object recognition memory: neurobiology, test procedure, and its modifications. Cognit. Process. 2012:13, 93-110). During the retrieval phase, the animal was allowed to explore the field for 10 min. The hippocampal functions were assessed through the recognition indices, which were measured according to the time spent by the animals to explore the familiar and new objects.
The test is a relatively fast and efficient means for testing learning and memory in an animal model. The test relies on only three sessions: one habituation session, one training session, and one test session and relies on rodents' natural proclivity for exploring novelty. This is a relatively low-stress, efficient test for memory in an animal model, and is appropriate for the detection of neuropsychological changes after the administration of test drugs (Lupetow L, Novel Object Recognition Test for the Investigation of Learning and Memory in Mice, J Vis Exp. 2017; (126): 55718).

Marks after values point to notes of the source that are not given here.

As for `COc1cc2c(cc1OC)C(=O)C(CC1CCN(Cc3ccccc3)CC1)C2` (centres unmarked) [Donepezil, reference compound], in assay [1] (FIG. 8A), the “histopathology of frontal cortex” value is “intact pyramidal cells having round to oval vesicular nucleus with abundant cytoplasm, neuroglial cells, granular cells and intact blood vessels with degenerated cells [focal] with dystrophic changes having shrunken and hyperchromatic nuclei”. In assay [1] (FIG. 8B-D), the “histopathology of hippocampus (CA1, CA2, CA3)” value was “intact architecture consisting of Cornu Ammonis [CA] and dentate gyrus with compact layers of small pyramidal cells having vesicular nuclei and moderate cytoplasm without shrinkage and necrosis with some degenerated cells with mild dystrophic changes having shrunken and hyperchromatic nuclei”. Moreover, the “Ach E” value in assay [2] is 4.25 ± 0.48** 10^−6 /mol/g of tissue. For the same compound, in the assay on BDNF, the BDNF was 31.51 ± 2.07 pg/mL. Moreover, the “% Recognition Index” value with Alzheimer's disease came to 62.58 ± 2.74 %.

(Values after patent US20260325464A1, “COMPOSITIONS FOR MODULATING THE EXPRESSION OF AQUAPORINS IN NEURODEGENERATIVE DISORDERS” (priority 2023, published 2026).)
